Assay results from paper doi:10.1101/2022.03.13.484137.

Protein sequences, listed by entry. Tags and fused reporters are not part of them.
UniProt P46937: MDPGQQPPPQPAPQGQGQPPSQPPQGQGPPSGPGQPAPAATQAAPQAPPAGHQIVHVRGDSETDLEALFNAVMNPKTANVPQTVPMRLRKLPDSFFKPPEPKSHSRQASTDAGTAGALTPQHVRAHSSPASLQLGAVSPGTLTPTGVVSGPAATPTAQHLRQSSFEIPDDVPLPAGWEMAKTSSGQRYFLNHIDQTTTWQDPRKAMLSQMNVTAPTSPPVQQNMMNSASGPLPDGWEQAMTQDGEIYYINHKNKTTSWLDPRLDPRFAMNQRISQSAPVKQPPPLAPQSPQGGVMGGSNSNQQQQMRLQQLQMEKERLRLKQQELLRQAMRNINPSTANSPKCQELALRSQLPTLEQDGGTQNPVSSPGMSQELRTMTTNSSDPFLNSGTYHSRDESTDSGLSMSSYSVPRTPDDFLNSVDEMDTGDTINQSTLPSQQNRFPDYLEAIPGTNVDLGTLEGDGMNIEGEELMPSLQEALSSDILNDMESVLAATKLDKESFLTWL
UniProt O95835: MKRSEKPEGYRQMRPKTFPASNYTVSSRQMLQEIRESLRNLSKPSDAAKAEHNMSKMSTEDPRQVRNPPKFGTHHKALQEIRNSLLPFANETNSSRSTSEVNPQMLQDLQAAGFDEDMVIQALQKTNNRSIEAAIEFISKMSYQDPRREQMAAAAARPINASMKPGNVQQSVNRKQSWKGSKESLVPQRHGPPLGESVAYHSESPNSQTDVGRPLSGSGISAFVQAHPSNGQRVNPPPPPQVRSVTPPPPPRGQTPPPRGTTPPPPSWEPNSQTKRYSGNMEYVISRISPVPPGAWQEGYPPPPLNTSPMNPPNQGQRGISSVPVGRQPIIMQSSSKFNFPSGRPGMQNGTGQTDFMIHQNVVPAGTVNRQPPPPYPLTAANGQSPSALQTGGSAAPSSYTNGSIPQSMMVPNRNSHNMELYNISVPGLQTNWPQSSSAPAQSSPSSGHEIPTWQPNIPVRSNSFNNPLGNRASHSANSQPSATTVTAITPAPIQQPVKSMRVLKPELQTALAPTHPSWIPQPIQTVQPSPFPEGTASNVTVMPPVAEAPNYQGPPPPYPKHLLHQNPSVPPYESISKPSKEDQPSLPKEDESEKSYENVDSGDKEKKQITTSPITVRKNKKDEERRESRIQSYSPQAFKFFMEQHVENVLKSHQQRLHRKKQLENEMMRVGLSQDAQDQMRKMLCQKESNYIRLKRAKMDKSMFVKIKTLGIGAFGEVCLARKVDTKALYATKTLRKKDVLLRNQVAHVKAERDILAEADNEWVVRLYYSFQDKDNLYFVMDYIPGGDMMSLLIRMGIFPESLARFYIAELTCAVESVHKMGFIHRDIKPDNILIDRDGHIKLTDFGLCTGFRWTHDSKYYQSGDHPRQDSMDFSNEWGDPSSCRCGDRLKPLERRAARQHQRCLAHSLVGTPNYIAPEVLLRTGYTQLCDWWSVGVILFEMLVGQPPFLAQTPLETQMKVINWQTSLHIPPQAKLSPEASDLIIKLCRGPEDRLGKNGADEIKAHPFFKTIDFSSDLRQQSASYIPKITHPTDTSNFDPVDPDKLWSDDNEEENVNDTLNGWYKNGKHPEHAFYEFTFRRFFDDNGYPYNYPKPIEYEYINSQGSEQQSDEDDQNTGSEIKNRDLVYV

Columns and labels:
[1] = substrate: N terminal Strep-HA-tagged YAP1 (human) (UniProt P46937); assay: affinity purification with mass spectrometry
[2] = substrate: N terminal Strep-HA-tagged YAP1 (human), P46937; assay: affinity purification with mass spectrometry + native gel or EMSA; settings: remark: other sources report otherwise
[3] = substrate: N terminal Strep-HA-tagged YAP1 (human), P46937; assay: affinity purification with mass spectrometry; settings: remark: other sources report otherwise
[4] = substrate: N terminal Strep-HA-tagged YAP1 (human) (UniProt P46937); assay: affinity purification with mass spectrometry + native gel or EMSA
[5] = substrate: N terminal Strep-HA-tagged LATS1 (human) (UniProt O95835); assay: affinity purification with mass spectrometry

B1: RASFF8 (protein, UniProt Q8NHQ8 1-419)
chain: MELKVWVDGVQRIVCGVTEVTTCQEVVIALAQAIGRTGRYTLIEKWRDTERHLAPHENPIISLNKWGQYASDVQLILRRTGPSLSERPTSDSVARIPERTLYRQSLPPLAKLRPQIDKSIKRREPKRKSLTFTGGAKGLMDIFGKGKETEFKQKVLNNCKTTADELKKLIRLQTEKLQSIEKQLESNEIEIRFWEQKYNSNLEEEIVRLEQKIKRNDVEIEEEEFWENELQIEQENEKQLKDQLQEIRQKITECENKLKDYLAQIRTMESGLEAEKLQREVQEAQVNEEEVKGKIGKVKGEIDIQGQQSLRLENGIKAVERSLGQATKRLQDKEQELEQLTKELRQVNLQQFIQQTGTKVTVLPAEPIEIEASHADIEREAPFQSGSLKRPGSSRQLPSNLRILQNPISSGFNPEGIYV
Q: With B1 as the binder, how does the binding [1] read?
A: Its binding is “binds”.

B2: TEAD3, Q99594 1-435 (protein)
chain: MASNSWNASSSPGEAREDGPEGLDKGLDNDAEGVWSPDIEQSFQEALAIYPPCGRRKIILSDEGKMYGRNELIARYIKLRTGKTRTRKQVSSHIQVLARKKVREYQVGIKAMNLDQVSKDKALQSMASMSSAQIVSASVLQNKFSPPSPLPQAVFSTSSRFWSSPPLLGQQPGPSQDIKPFAQPAYPIQPPLPPTLSSYEPLAPLPSAAASVPVWQDRTIASSRLRLLEYSAFMEVQRDPDTYSKHLFVHIGQTNPAFSDPPLEAVDVRQIYDKFPEKKGGLKELYEKGPPNAFFLVKFWADLNSTIQEGPGAFYGVSSQYSSADSMTISVSTKVCSFGKQVVEKVETEYARLENGRFVYRIHRSPMCEYMINFIHKLKHLPEKYMMNSVLENFTILQVVTSRDSQETLLVIAFVFEVSTSEHGAQHHVYKLVKD
Q: With B2 as the binder, how does the binding [2] read?
A: Its binding is “binds”.

Q: And the binding [3]?
A: The binding was “binds”.

B3: AMOTL1 (protein, UniProt Q8IY63 1-956)
chain: MWRAKLRRGTCEPAVKGSPSACYSPSSPVQVLEDSTYFSPDFQLYSGRHETSALTVEATSSIREKVVEDPLCNFHSPNFLRISEVEMRGSEDAAAGTVLQRLIQEQLRYGTPTENMNLLAIQHQATGSAGPAHPTNNFSSTENLTQEDPQMVYQSARQEPQGQEHQVDNTVMEKQVRSTQPQQNNEELPTYEEAKAQSQFFRGQQQQQQQQGAVGHGYYMAGGTSQKSRTEGRPTVNRANSGQAHKDEALKELKQGHVRSLSERIMQLSLERNGAKQHLPGSGNGKGFKVGGGPSPAQPAGKVLDPRGPPPEYPFKTKQMMSPVSKTQEHGLFYGDQHPGMLHEMVKPYPAPQPVRTDVAVLRYQPPPEYGVTSRPCQLPFPSTMQQHSPMSSQTSSASGPLHSVSLPLPLPMALGAPQPPPAASPSQQLGPDAFAIVERAQQMVEILTEENRVLHQELQGYYDNADKLHKFEKELQRISEAYESLVKSTTKRESLDKAMRNKLEGEIRRLHDFNRDLRDRLETANRQLSSREYEGHEDKAAEGHYASQNKEFLKEKEKLEMELAAVRTASEDHRRHIEILDQALSNAQARVIKLEEELREKQAYVEKVEKLQQALTQLQSACEKREQMERRLRTWLERELDALRTQQKHGNGQPANMPEYNAPALLELVREKEERILALEADMTKWEQKYLEESTIRHFAMNAAATAAAERDTTIINHSRNGSYGESSLEAHIWQEEEEVVQANRRCQDMEYTIKNLHAKIIEKDAMIKVLQQRSRKDAGKTDSSSLRPARSVPSIAAATGTHSRQTSLTSSQLAEEKKEEKTWKGSIGLLLGKEHHEHASAPLLPPPPTSALSSIASTTAASSAHAKTGSKDSSTQTDKSAELFWPSMASLPSRGRLSTTPAHSPVLKHPAAKGTAEKLENSPGHGKSPDHRGRVSSLLHKPEFPDGEMMEVLI
Q: B3 was tested. Which binding [4] did it give?
A: The binding was “binds”.

B4: PTPN14 (protein, UniProt Q15678 1-1187)
chain: MPFGLKLRRTRRYNVLSKNCFVTRIRLLDSNVIECTLSVESTGQECLEAVAQRLELRETHYFGLWFLSKSQQARWVELEKPLKKHLDKFANEPLLFFGVMFYVPNVSWLQQEATRYQYYLQVKKDVLEGRLRCTLDQVIRLAGLAVQADFGDYNQFDSQDFLREYVLFPMDLALEEAVLEELTQKVAQEHKAHSGILPAEAELMYINEVERLDGFGQEIFPVKDNHGNCVHLGIFFMGIFVRNRIGRQAVIYRWNDMGNITHNKSTILVELINKEETALFHTDDIENAKYISRLFATRHKFYKQNKICTEQSNSPPPIRRQPTWSRSSLPRQQPYILPPVHVQCGEHYSETHTSQDSIFHGNEEALYCNSHNSLDLNYLNGTVTNGSVCSVHSVNSLNCSQSFIQASPVSSNLSIPGSDIMRADYIPSHRHSAIIVPSYRPTPDYETVMRQMKRGILHTDSQSQSLRNLNIINTHAYNQPEDLVYSQPEMRERHPYTVPYGPQGVYSNKLVSPSDQRNPKNNVVPSKPGASAISHTVSTPELANMQLQGSHNYSTAHMLKNYLFRPPPPYPRPRPATSTPDLASHRHKYVSGSSPDLVTRKVQLSVKTFQEDSSPVVHQSLQEVSEPLTATKHHGTVNKRHSLEVMNSMVRGMEAMTLKSLHLPMARRNTLREQGPPEEGSGSHEVPQLPQYHHKKTFSDATMLIHSSESEEEEEEAPESVPQIPMLREKMEYSAQLQAALARIPNKPPPEYPGPRKSVSNGALRQDQASLPPAMARARVLRHGPAKAISMSRTDPPAVNGASLGPSISEPDLTSVKERVKKEPVKERPVSEMFSLEDSIIEREMMIRNLEKQKMAGLEAQKRPLMLAALNGLSVARVSGREENRVDATRVPMDERFRTLKKKLEEGMVFTEYEQIPKKKANGIFSTAALPENAERSRIREVVPYEENRVELIPTKENNTGYINASHIKVVVGGAEWHYIATQGPLPHTCHDFWQMVWEQGVNVIAMVTAEEEGGRTKSHRYWPKLGSKHSSATYGKFKVTTKFRTDSVCYATTGLKVKHLLSGQERTVWHLQYTDWPDHGCPEDVQGFLSYLEEIQSVRRHTNSMLEGTKNRHPPIVVHCSAGVGRTGVLILSELMIYCLEHNEKVEVPMMLRLLREQRMFMIQTIAQYKFVYQVLIQFLQNSRLI
Q: Which binding [5] does the source give for B4 here?
A: Its binding is “binds”.

B5: 1433F (protein, UniProt Q04917 1-246)
chain: MGDREQLLQRARLAEQAERYDDMASAMKAVTELNEPLSNEDRNLLSVAYKNVVGARRSSWRVISSIEQKTMADGNEKKLEKVKAYREKIEKELETVCNDVLSLLDKFLIKNCNDFQYESKVFYLKMKGDYYRYLAEVASGEKKNSVVEASEAAYKEAFEISKEQMQPTHPIRLGLALNFSVFYYEIQNAPEQACLLAKQAFDDAIAELDTLNEDSYKDSTLIMQLLRDNLTLWTSDQQDEEAGEGN
Q: How did the binding [1] turn out when B5 was run?
A: The binding was “binds”.

Results are given in words; binding and its absence hold for the method and conditions named. In cells and extracts the contact can be indirect. These calls come from enrichment with a bait or labelling near it, and not all partners need be listed.
